In publication PMC9156741, “Blocking phospholamban with VHH intrabodies enhances contractility and relaxation in heart failure” (Nature Communications, 2022):
These are yes or no findings as the source states them, for the method shown. Some binding calls cover weakened binding; strength is not graded here.

Target: T1, PLN peptide IV (biotin-…-NH2)
T1 sequence (peptide, amino terminal linked biotin-group; C-terminal amidation): EKVQYLTRSAIRRASTIE
Assay: ELISA; VHHs expressed in small-scale E. coli HB2151 cultures; biotinylated peptide (peptide VI captured on Nunc maxisorb plates coated with 2 ug/ml neutravidin); only the target purified

B1: VHH B4 (VHH)
VHH: EVQLQESGGGLVQAGGSLRLSCAASGFSFYRHAMGWFRQAPGKEREWVAEIDWEGGYTYYADSVKGRFTISRDNAKNTVYLQMNSLKPEDTAVYYCAAGRDLYAYWGQGTQVTVSS
notes: VHH B4, from the synthetic LlamdA phage-display VHH library (llama VHH framework); also called clone B4; source: E. coli HB2151, small-scale cultures induced with IPTG (ELISA); expressed and purified according to previously described protocols (SPR)
- binding: binds
